{"source": "PubChem BioAssay AID652243, Drosophila RNAi Screening Center | 2013", "screen": "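Knock-downs that decrease or increase androgen receptor reporter signal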 (primary screen)", "cells": "Drosophila S2R+ cells", "reagents": "long dsRNA against Drosophila genes", "timing": "72 h (48 h, then 24 h hormone)", "treatment": "synthetic androgen R1881 at 10 nM for 24 h", "read-out": "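Per-well raw luminescence of the androgen-driven firefly reporter and of the Renilla control, two replicates each, without normalisation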", "reading the numbers": "firefly reporter light: higher = more light from androgen-responsive reporter; Renilla control light: higher = more constitutive control signal (cell number, transfection)", "rule for the call": "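Hit when the log firefly-to-Renilla ratio dropped or increased by a fixed fold versus the mean of GFP or LacZ controls across duplicate plates; lowering cut given as 1.5 and as 3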", "meaning of the calls": "active = hit: reporter lowered or raised; inactive = no hit", "note": "The screen tested about 24,000 reagents; this is an unselected part of those that have a named target and a result. Of all reagents, 246 (1%) are marked active. 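Plates not normalised; calls are printed but the firefly/Renilla ratio behind them is not deposited; fold cut for lowering reported inconsistently.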 Raw values are not corrected between plates. A plus sign joins genes that one reagent is predicted to hit. The record does not give: the amount of reagent."}
{"gene": "NfI (Nuclear factor I)", "PubChem SID": "SID104196950", "firefly reporter light, replicate 1": 2.76e5, "firefly reporter light, replicate 2": 2.92e5, "Renilla control light, replicate 1": 4.67e6, "Renilla control light, replicate 2": 3.32e6, "outcome": "inactive"}
{"gene": "Diedel3 (Diedel 3)", "PubChem SID": "SID104199336", "firefly reporter light, replicate 1": 2.90e5, "firefly reporter light, replicate 2": 1.73e5, "Renilla control light, replicate 1": 1.02e6, "Renilla control light, replicate 2": 5.36e5, "outcome": "inactive"}
{"gene": "BubR1 (Bub1-related kinase)", "PubChem SID": "SID104184630", "firefly reporter light, replicate 1": 3.32e5, "firefly reporter light, replicate 2": 3.83e5, "Renilla control light, replicate 1": 1.72e6, "Renilla control light, replicate 2": 1.78e6, "outcome": "inactive"}
{"gene": "BubR1 (Bub1-related kinase)", "PubChem SID": "SID104214334", "outcome": "inactive"}
{"gene": "BubR1 (Bub1-related kinase)", "PubChem SID": "SID104214335", "outcome": "inactive"}
{"gene": "CG31924", "PubChem SID": "SID104180481", "firefly reporter light, replicate 1": 1.09e5, "firefly reporter light, replicate 2": 1.20e5, "Renilla control light, replicate 1": 6.57e5, "Renilla control light, replicate 2": 8.65e5, "outcome": "inactive"}
{"gene": "Ir51a (Ionotropic receptor 51a)", "PubChem SID": "SID104186048", "firefly reporter light, replicate 1": 64430, "firefly reporter light, replicate 2": 59331, "Renilla control light, replicate 1": 1.27e6, "Renilla control light, replicate 2": 1.27e6, "outcome": "inactive"}

Sorted by “Renilla control light, replicate 1” (descending): 2 of the entries above.
{"gene": "NfI (Nuclear factor I)", "PubChem SID": "SID104196950", "firefly reporter light, replicate 1": 2.76e5, "firefly reporter light, replicate 2": 2.92e5, "Renilla control light, replicate 1": 4.67e6, "Renilla control light, replicate 2": 3.32e6, "outcome": "inactive"}
{"gene": "Diedel3 (Diedel 3)", "PubChem SID": "SID104199336", "firefly reporter light, replicate 1": 2.90e5, "firefly reporter light, replicate 2": 1.73e5, "Renilla control light, replicate 1": 1.02e6, "Renilla control light, replicate 2": 5.36e5, "outcome": "inactive"}

The listing continues.
{"gene": "CG14567", "PubChem SID": "SID104191520", "firefly reporter light, replicate 1": 2.79e5, "firefly reporter light, replicate 2": 2.17e5, "Renilla control light, replicate 1": 2.40e6, "Renilla control light, replicate 2": 1.63e6, "outcome": "inactive"}
{"gene": "fid (fire dancer)", "PubChem SID": "SID104194677", "firefly reporter light, replicate 1": 29193, "firefly reporter light, replicate 2": 27214, "Renilla control light, replicate 1": 7.32e5, "Renilla control light, replicate 2": 8.39e5, "outcome": "inactive"}
{"gene": "fid (fire dancer)", "PubChem SID": "SID104196256", "firefly reporter light, replicate 1": 93277, "firefly reporter light, replicate 2": 1.15e5, "Renilla control light, replicate 1": 1.84e6, "Renilla control light, replicate 2": 2.08e6, "outcome": "inactive"}
{"gene": "fid (fire dancer)", "PubChem SID": "SID104202780", "firefly reporter light, replicate 1": 5.04e5, "firefly reporter light, replicate 2": 6.42e5, "Renilla control light, replicate 1": 8.16e5, "Renilla control light, replicate 2": 8.79e5, "outcome": "inactive"}
{"gene": "fid (fire dancer)", "PubChem SID": "SID104203776", "firefly reporter light, replicate 1": 1.56e6, "firefly reporter light, replicate 2": 1.47e6, "Renilla control light, replicate 1": 1.09e6, "Renilla control light, replicate 2": 8.56e5, "outcome": "inactive"}
{"gene": "CG1737", "PubChem SID": "SID104199563", "firefly reporter light, replicate 1": 3.10e5, "firefly reporter light, replicate 2": 3.22e5, "Renilla control light, replicate 1": 1.39e6, "Renilla control light, replicate 2": 1.89e6, "outcome": "inactive"}
{"gene": "CG1737", "PubChem SID": "SID104203678", "firefly reporter light, replicate 1": 9.27e5, "firefly reporter light, replicate 2": 7.88e5, "Renilla control light, replicate 1": 1.10e6, "Renilla control light, replicate 2": 1.21e6, "outcome": "inactive"}
{"gene": "Hsp70Aa + Hsp70Bb + Hsp70Ba + 3 more", "PubChem SID": "SID104195172", "firefly reporter light, replicate 1": 1.15e5, "firefly reporter light, replicate 2": 1.13e5, "Renilla control light, replicate 1": 2.11e6, "Renilla control light, replicate 2": 1.86e6, "outcome": "inactive"}
{"gene": "CG2750", "PubChem SID": "SID104199659", "firefly reporter light, replicate 1": 6.04e5, "firefly reporter light, replicate 2": 4.68e5, "Renilla control light, replicate 1": 3.58e6, "Renilla control light, replicate 2": 2.93e6, "outcome": "inactive"}
{"gene": "CG15891 + CG15892", "PubChem SID": "SID104197887", "firefly reporter light, replicate 1": 53312, "firefly reporter light, replicate 2": 78814, "Renilla control light, replicate 1": 7.47e5, "Renilla control light, replicate 2": 6.61e5, "outcome": "inactive"}
{"gene": "CG15891 + CG15892", "PubChem SID": "SID104197888", "firefly reporter light, replicate 1": 1.51e5, "firefly reporter light, replicate 2": 2.09e5, "Renilla control light, replicate 1": 1.48e6, "Renilla control light, replicate 2": 2.81e6, "outcome": "inactive"}
{"gene": "xmas", "PubChem SID": "SID104201098", "firefly reporter light, replicate 1": 1.39e5, "firefly reporter light, replicate 2": 2.79e5, "Renilla control light, replicate 1": 5.34e5, "Renilla control light, replicate 2": 6.12e5, "outcome": "inactive"}
{"gene": "xmas", "PubChem SID": "SID104201721", "firefly reporter light, replicate 1": 5.41e5, "firefly reporter light, replicate 2": 4.76e5, "Renilla control light, replicate 1": 9.70e5, "Renilla control light, replicate 2": 8.29e5, "outcome": "inactive"}
{"gene": "Spn38F (Serpin 38F)", "PubChem SID": "SID104183408", "firefly reporter light, replicate 1": 1.85e5, "firefly reporter light, replicate 2": 1.90e5, "Renilla control light, replicate 1": 1.36e6, "Renilla control light, replicate 2": 1.74e6, "outcome": "inactive"}
{"gene": "Spn38F (Serpin 38F)", "PubChem SID": "SID104203308", "firefly reporter light, replicate 1": 2.20e5, "firefly reporter light, replicate 2": 3.03e5, "Renilla control light, replicate 1": 6.02e5, "Renilla control light, replicate 2": 3.71e5, "outcome": "inactive"}
